Laboratory results: PubChem BioAssay AID504834 (National Center for Advancing Translational Sciences (NCATS), 2011)
Out of some 320,000 compounds screened, about 22,000 (6.9%) were called active. This list was built around the results that the source calls inconclusive (neither active nor inactive); the mix of calls is not that of the screen. Calls come from the whole dose curve; as a rule, active = well fitted inhibition curve with a large enough effect; inconclusive = small, poorly fitted or top-dose-only effect, or another doubt; inactive = no such curve, though single readings can be large or run the other way. Potencies of inconclusive entries are doubtful fits and often do not repeat.

Assay: Primary qHTS for delayed death inhibitors of the malarial parasite plastid, 96 hour incubation
Conditions: P. falciparum luciferase reporter growth; series mostly up to 28.7 µM; activity change, negative = inhibition: at the top concentration
Method in brief: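 Infected RBCs, 2% Hct / 0.05% parasitemia final; luciferase-reporter P. falciparum; cpd 96 h, 37 C, 5% CO2; luciferase detection reagent; luminescence.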
% is set by controls: 0 for no effect and ±100 for the full control effect; potency is the fitted concentration of half-maximal effect.

Question: For `O=C(NC(=S)NC(c1ccccc1)c1ccncc1)c1ccccc1` (centres undefined), which Potency is on record?
Answer: active: 9.28 µM

Question: For `COc1ccc(N2CCN(C(=O)C(=O)c3c[nH]c4ccccc34)CC2)cc1`, which Potency is on record?
Answer: inconclusive: 18.5 µM [inhibitor, single point]

Question: For `CCOC(=O)c1ccc(NC(=O)c2nc(SC)ncc2Cl)cc1`, which Potency is on record?
Answer: inconclusive: 10.4 µM [inhibitor, partial curve, poor fit]

Question: With `COc1ccc(-c2csc(NC(=O)C3=COCCO3)n2)c(OC)c1` as the compound, how does the “activity change, negative = inhibition” value read?
Answer: inactive: 73.5%

Question: With `c1csc(-c2cc(N3CCCCC3)c3ccccc3n2)c1` as the compound, how does the Potency read?
Answer: inconclusive: 18.5 µM [inhibitor, single point]

Question: With `Cc1cn(C(=O)c2ccccc2)c(=S)n1-c1ccc(Br)cc1` as the compound, how does the “activity change, negative = inhibition” value read?
Answer: inactive: -11.2%

Question: With `COc1ccc(-c2c(-c3cc(OC)cc(OC)c3)n(C)c3ccc(-c4ccc5[nH]ccc5c4)cc23)cc1` as the compound, how does the Potency read?
Answer: inconclusive: 2.62 µM [inhibitor, partial curve, poor fit]

Question: For `COC(=O)[C@@H]1CC[C@H](C)[C@@H](c2ccc(C)cc2)N1C(=O)c1ccc(/C=N/O[C@H](C)c2cn([C@@H]3COC[C@H]3O)nn2)cc1`, which Potency is on record?
Answer: inconclusive: 18.5 µM [inhibitor, single point]

Question: With `O=C(CCCN1C(=O)c2cccc3cccc(c23)C1=O)N1CCc2ccccc2C1` as the compound, how does the “activity change, negative = inhibition” value read?
Answer: inactive: -4.82%

Question: Which “activity change, negative = inhibition” value does the source give for `Cc1nc(C)c(C(=O)OCC(=O)NCc2ccccc2)s1` here?
Answer: inactive: 14.4%

Question: With `COc1ccc(NC(=S)N2CCN(C(c3ccccc3)c3ccccc3)CC2)cc1OC` as the compound, how does the Potency read?
Answer: inconclusive: 18.5 µM [inhibitor, single point]

Question: With `Cc1ccc(-c2noc(-c3ccccc3C(=O)NCc3ccco3)n2)cc1` as the compound, how does the “activity change, negative = inhibition” value read?
Answer: inactive: 66.6%

Question: With `COc1ccc(CN2C(=O)CN(C3CCCCCC3)C(=O)C2c2ccc(F)cc2)cc1` (centres undefined) as the compound, how does the Potency read?
Answer: inconclusive: 0.0738 µM [inhibitor, full curve, poor fit]

Question: With `CCCn1nnc(NC(=S)NC(=O)/C=C/c2ccco2)n1` as the compound, how does the “activity change, negative = inhibition” value read?
Answer: inactive: 0.612%

Question: For `COc1ccc(NC(=O)Cc2cccc(F)c2)cc1S(=O)(=O)Nc1ccccc1Cl`, which Potency is on record?
Answer: inconclusive: 18.5 µM [inhibitor, single point]

Question: With `Cc1ccc(-c2ccc(=O)n(CCC(=O)N3CCN(c4cccc(C)c4)C(C)C3)n2)cc1` (centres undefined) as the compound, how does the “activity change, negative = inhibition” value read?
Answer: inactive: 12.4%

Question: For `Cc1ccccc1NC(=O)NC1CCCc2ccccc21` (centres undefined), which Potency is on record?
Answer: inconclusive: 18.5 µM [inhibitor, single point]

Question: With `COc1ccc(CN2CCn3nc(C(=O)NC(C)C)cc3C2=O)cc1` as the compound, how does the Potency read?
Answer: inconclusive: 3.29 µM [inhibitor, partial curve, poor fit]

Question: For `CCn1cc(S(=O)(=O)c2ccccc2)c(=O)c2cc(F)c(N3CCN(C)CC3)cc21`, which Potency is on record?
Answer: inconclusive: 9.28 µM [inhibitor, single point]
